# Measurements taken from the supplement of paper PMC12819154, “High-throughput peptide-centric local stability assay extends protein–ligand identification to membrane proteins, tissues and bacteria” (Nature Structural & Molecular Biology, 2025).
# Sequences of proteins named here, by UniProt entry; tags and fusion partners are left off. A change or cut given only in a name is not applied to a line headed by its entry.
# UniProt Q80XI4: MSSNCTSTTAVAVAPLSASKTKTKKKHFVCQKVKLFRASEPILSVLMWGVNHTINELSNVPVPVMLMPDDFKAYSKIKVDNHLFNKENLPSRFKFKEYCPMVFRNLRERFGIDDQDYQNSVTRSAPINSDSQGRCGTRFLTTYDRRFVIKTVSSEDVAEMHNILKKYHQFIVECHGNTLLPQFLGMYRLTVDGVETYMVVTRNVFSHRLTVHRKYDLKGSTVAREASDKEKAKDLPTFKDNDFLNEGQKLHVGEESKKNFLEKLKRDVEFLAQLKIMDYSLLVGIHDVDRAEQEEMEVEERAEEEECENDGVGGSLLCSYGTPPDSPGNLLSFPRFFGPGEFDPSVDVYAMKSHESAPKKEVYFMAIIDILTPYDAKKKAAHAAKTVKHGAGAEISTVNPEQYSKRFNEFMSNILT
# UniProt Q8BGR9: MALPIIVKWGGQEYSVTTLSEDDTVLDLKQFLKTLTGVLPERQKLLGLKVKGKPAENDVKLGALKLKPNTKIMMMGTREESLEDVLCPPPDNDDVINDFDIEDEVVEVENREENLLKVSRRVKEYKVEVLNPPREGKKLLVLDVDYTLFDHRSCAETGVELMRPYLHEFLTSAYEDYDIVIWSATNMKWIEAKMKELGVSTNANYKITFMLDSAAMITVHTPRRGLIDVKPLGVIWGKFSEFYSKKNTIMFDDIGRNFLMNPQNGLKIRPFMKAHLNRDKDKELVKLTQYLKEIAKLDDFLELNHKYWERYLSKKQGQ
# UniProt Q8BH05: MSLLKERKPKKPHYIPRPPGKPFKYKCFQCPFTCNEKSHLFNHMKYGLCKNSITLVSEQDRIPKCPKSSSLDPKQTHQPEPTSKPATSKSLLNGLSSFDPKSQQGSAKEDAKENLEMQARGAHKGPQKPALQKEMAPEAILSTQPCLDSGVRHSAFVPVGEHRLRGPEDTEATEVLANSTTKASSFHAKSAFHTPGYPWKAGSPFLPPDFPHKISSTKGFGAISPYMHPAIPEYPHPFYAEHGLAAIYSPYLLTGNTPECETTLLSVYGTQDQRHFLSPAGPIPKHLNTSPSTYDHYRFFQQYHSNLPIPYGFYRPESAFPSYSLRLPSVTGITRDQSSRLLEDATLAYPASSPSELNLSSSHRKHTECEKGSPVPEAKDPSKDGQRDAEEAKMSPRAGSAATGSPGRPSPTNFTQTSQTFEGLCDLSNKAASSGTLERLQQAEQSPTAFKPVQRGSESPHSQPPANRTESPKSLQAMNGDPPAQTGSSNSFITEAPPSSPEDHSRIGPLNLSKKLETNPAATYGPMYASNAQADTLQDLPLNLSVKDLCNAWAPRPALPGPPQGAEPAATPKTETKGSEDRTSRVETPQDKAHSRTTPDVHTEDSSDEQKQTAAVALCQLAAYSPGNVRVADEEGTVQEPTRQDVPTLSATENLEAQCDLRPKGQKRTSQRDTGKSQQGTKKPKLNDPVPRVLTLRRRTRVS
# UniProt Q8BH66: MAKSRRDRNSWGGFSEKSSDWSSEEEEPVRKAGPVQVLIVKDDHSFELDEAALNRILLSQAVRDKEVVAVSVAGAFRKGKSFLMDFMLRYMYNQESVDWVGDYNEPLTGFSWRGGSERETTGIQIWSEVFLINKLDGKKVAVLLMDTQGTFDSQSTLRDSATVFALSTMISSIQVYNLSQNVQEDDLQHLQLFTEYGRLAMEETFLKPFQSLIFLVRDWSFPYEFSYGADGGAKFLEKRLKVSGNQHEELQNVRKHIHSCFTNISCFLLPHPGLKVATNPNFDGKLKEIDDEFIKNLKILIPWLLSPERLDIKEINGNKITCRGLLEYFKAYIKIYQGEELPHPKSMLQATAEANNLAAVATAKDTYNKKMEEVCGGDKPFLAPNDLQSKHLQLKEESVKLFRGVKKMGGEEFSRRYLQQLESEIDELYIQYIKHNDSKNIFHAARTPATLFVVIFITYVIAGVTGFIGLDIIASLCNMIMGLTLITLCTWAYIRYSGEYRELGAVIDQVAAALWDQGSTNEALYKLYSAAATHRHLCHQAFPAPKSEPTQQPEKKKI
# UniProt Q8BHJ9: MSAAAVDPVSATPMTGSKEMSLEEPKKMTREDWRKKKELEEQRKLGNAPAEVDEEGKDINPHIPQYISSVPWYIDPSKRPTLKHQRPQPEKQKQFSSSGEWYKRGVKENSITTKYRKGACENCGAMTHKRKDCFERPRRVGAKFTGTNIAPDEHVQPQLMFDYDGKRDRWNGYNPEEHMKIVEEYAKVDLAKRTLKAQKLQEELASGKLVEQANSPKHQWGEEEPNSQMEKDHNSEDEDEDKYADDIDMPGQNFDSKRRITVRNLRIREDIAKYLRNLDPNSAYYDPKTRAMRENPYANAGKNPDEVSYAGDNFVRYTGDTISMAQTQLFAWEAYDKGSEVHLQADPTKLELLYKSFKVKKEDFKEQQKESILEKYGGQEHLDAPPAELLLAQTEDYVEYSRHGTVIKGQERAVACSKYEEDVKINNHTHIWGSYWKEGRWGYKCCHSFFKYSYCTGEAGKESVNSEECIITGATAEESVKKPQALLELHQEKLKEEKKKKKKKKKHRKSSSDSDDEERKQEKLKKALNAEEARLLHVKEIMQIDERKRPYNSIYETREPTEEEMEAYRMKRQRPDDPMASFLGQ
# UniProt Q8BH44: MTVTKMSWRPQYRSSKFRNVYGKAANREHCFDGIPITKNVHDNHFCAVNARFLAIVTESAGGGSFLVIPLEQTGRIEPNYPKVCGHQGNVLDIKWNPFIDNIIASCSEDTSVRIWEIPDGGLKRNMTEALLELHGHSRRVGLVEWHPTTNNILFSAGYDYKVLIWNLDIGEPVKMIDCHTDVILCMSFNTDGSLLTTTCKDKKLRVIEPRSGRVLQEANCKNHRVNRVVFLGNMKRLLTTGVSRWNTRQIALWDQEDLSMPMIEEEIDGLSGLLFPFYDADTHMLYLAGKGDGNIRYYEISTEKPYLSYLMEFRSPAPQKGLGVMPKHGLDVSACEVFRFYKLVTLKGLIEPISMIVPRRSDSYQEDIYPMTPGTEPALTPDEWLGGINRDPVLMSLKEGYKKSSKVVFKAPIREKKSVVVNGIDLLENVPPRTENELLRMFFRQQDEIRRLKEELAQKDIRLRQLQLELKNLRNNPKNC
# UniProt Q8BGB5: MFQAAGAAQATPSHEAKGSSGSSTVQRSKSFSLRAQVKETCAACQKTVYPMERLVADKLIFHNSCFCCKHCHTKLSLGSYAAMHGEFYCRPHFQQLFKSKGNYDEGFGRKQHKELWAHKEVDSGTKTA
# UniProt Q811U4: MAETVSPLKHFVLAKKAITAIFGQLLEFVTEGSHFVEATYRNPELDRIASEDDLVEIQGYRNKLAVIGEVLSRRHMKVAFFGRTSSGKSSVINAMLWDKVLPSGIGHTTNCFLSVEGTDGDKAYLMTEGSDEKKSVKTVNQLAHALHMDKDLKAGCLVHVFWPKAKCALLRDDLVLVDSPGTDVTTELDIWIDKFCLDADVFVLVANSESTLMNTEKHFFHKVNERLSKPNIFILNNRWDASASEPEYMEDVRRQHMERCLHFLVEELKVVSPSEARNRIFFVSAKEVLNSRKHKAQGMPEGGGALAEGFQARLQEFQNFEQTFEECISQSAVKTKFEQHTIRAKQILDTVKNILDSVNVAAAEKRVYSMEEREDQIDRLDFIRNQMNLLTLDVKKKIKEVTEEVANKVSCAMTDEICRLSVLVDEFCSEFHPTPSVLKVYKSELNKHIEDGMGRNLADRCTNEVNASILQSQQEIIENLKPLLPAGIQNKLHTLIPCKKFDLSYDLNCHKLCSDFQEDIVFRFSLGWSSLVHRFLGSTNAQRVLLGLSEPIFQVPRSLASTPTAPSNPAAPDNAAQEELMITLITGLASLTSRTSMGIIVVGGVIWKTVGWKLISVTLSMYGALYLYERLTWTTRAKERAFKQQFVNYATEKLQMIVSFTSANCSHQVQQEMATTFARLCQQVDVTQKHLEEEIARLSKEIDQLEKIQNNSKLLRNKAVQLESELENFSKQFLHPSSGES
# UniProt Q8BGG7, whole entry: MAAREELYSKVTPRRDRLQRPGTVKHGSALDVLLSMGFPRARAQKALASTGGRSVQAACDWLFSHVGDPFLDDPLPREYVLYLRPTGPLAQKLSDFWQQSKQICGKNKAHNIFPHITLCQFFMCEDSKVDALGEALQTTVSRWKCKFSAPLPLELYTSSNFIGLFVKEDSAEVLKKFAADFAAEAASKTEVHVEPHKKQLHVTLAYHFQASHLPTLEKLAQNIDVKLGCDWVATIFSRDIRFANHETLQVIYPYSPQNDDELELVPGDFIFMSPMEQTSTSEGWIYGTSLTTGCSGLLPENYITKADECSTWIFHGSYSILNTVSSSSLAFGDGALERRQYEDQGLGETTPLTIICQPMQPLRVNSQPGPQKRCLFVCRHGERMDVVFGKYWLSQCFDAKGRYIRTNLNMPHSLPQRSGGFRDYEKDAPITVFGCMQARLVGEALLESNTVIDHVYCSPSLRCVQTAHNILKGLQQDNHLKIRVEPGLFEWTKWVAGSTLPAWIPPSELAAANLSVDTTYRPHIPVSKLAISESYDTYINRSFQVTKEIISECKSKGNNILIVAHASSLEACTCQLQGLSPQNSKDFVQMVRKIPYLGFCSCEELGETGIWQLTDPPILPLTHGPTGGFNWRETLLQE
# UniProt Q8BH02: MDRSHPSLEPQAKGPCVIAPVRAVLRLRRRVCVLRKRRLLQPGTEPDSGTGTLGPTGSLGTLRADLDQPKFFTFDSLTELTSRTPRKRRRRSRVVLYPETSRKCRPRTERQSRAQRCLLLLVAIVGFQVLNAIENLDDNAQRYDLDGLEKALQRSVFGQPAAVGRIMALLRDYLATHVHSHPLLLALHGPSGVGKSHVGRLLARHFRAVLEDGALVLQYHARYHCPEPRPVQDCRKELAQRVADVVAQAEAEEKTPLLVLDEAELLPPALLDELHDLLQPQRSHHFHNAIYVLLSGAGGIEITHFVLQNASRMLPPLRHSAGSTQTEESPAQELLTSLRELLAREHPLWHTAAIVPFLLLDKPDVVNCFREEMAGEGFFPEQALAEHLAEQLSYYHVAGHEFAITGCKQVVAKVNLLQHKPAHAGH
# UniProt Q8BG95: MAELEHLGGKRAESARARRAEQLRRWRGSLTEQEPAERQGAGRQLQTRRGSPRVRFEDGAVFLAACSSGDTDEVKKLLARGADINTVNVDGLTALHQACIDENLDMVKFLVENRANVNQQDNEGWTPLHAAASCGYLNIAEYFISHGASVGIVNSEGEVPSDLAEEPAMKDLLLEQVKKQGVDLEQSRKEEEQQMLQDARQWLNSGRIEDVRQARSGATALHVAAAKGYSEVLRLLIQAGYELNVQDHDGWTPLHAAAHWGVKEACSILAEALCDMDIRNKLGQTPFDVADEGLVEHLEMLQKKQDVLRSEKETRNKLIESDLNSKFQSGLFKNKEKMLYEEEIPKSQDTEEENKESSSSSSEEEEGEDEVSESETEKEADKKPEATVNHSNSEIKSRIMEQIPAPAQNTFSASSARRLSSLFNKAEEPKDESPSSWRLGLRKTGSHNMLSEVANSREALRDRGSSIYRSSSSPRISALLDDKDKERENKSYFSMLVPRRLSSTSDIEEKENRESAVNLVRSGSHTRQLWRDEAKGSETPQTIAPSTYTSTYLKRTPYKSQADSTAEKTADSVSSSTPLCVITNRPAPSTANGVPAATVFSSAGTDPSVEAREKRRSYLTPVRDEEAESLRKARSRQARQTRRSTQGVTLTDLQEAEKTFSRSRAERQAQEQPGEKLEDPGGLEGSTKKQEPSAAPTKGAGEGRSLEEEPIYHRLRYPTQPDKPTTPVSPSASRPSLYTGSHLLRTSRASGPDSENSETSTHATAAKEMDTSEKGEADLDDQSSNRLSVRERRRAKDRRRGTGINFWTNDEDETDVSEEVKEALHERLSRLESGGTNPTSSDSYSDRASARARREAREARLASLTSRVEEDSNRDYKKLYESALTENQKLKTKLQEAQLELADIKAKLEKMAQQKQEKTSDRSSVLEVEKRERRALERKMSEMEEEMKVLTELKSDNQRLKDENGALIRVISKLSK
# This is one part of the list. Most values lie at the level of the controls, where differences are scatter.
# Compound: CN[C@@H]1C[C@H]2O[C@@](C)([C@@H]1OC)n1c3ccccc3c3c4c(c5c6ccccc6n2c5c31)C(=O)NC4 [staurosporine]
# Experiment: log2 fold change of tryptic peptide abundance, ligand vs vehicle (limited proteolysis) (log2 ratio); higher = more trypsin-susceptible (destabilized)
# Settings: ligand concentration: 20 uM; sample: mouse liver crude lysate; replicate design: treated separately
row,Target,log2 fold change
1,"UniProt Q80XI4 (peptide sequence: DLPTFKDNDFLNEGQK, peptide start residue: 234)",0.176
2,"UniProt Q8BGR9 (peptide sequence: GLIDVKPLGVIWGK, peptide start residue: 225)",0.296
3,"UniProt Q8BH05 (peptide sequence: HLNTSPSTYDHYR, peptide start residue: 286)",-0.634
4,"UniProt Q8BH66 (peptide sequence: ILLSQAVR, peptide start residue: 56)",0.387
5,"UniProt Q8BHJ9 (peptide sequence: GVKENSITTK, peptide start residue: 105)",-0.898
6,"UniProt Q8BH44 (peptide sequence: LKEELAQK, peptide start residue: 452)",-0.335
7,"UniProt Q8BGB5 (peptide sequence: ELWAHKEVDSGTK, peptide start residue: 114)",-0.158
8,"UniProt Q811U4 (peptide sequence: VYKSELNKHIEDGMGR, peptide start residue: 440)",-1.02
9,"UniProt Q8BGG7 (peptide sequence: LQRPGTVK, peptide start residue: 18)",-0.187
10,"UniProt Q8BH02 (peptide sequence: GPCVIAPVR, peptide start residue: 14)",0.118
11,"UniProt Q8BG95 (peptide sequence: SYLTPVRDEEAESLRK, peptide start residue: 617)",0.493
